# From the supplement of paper PMC4604168 (melanoma cell lines)
# The list shows a part of the results. Many values rest on one well or one pass, so single values are uncertain.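 Cells were imaged in 1,536-well plates, and nuclei stained with an antibody against cleaved PARP were counted against all DNA-stained nuclei to give the apoptosis fraction. Screening doses were chosen to leave most cells alive, and resting and induced cleaved-PARP levels differ strongly between cell lines.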
# Key:
# Experiment in all cases: cleaved PARP positive nuclei fraction relative to DMSO control; melanoma cells; higher = more apoptosis
# Conditions in all cases: library dose: low library concentration; 72 h
# MeWo = system: MeWo
# RPMI7951 = system: RPMI7951
# RVH-421 = system: RVH-421
# SkMel28 = system: SkMel28
# SkMel2 = system: SkMel2
# SkMel30 = system: SkMel30
# SkMel5 = system: SkMel5
# UACC257 = system: UACC257
# UACC62 = system: UACC62
# MZ2-MEL = system: MZ2-MEL
Structure (SMILES),cleaved PARP positive nuclei fraction (MeWo) [%],cleaved PARP positive nuclei fraction (RPMI7951) [%],cleaved PARP positive nuclei fraction (RVH-421) [%],cleaved PARP positive nuclei fraction (SkMel28) [%],cleaved PARP positive nuclei fraction (SkMel2) [%],cleaved PARP positive nuclei fraction (SkMel30) [%],cleaved PARP positive nuclei fraction (SkMel5) [%],cleaved PARP positive nuclei fraction (UACC257) [%],cleaved PARP positive nuclei fraction (UACC62) [%],cleaved PARP positive nuclei fraction (MZ2-MEL) [%]
"COc1ccc(C2=N[C@@H](c3ccc(Cl)cc3)[C@@H](c3ccc(Cl)cc3)N2C(=O)N2CCNC(=O)C2)c(OC(C)C)c1 [Nutlin-3] + CCCCCCCCCCCC1=C(O)C(=O)C=C(O)C1=O [Embelin] (first compound 0.1 µM, partner dose 1.2 µM)",145,87.8,134,154,103,61.1,106,172,87.1,
"CCCCCCCCc1ccc(CCC(N)(CO)CO)cc1 [fingolimod] + CNC(=O)c1cc(Oc2ccc(NC(=O)Nc3ccc(Cl)c(C(F)(F)F)c3)cc2)ccn1 [sorafenib] (first compound 2 µM, partner dose 0.4 µM)",117,70.6,36.7,42.4,,93.8,,,269,62.8
"NC1(c2ccc(-c3nc4ccn5c(=O)[nH]nc5c4cc3-c3ccccc3)cc2)CCC1 + Cc1cc(N2CCOCC2)cc2[nH]c(-c3c(NC[C@@H](O)c4cccc(Cl)c4)cc[nH]c3=O)nc12 [BMS536924] (first compound 0.4 µM, partner dose 0.2 µM)",173,47,50.5,83.5,93.4,217,132,42.6,198,
"CCCCCCCCc1ccc(CCC(N)(CO)CO)cc1 [fingolimod] + CO[C@H]1C[C@@H]2CC[C@@H](C)[C@@](O)(O2)C(=O)C(=O)N2CCCC[C@H]2C(=O)O[C@H]([C@H](C)C[C@@H]2CC[C@@H](OCCO)[C@H](OC)C2)CC(=O)[C@H](C)/C=C(\C)[C@@H](O)[C@@H](OC)C(=O)[C@H](C)C[C@H](C)/C=C/C=C/C=C/1C [everolimus] (first compound 2 µM, partner dose 0.02 µM)",72.8,147,251,319,,53.5,,,517,112
"Cn1cnc2c(F)c(Nc3ccc(Br)cc3Cl)c(C(=O)NOCCO)cc21 [selumetinib] + COc1cc(N2CCC(N3CCN(C)CC3)CC2)ccc1Nc1ncc(Cl)c(Nc2ccccc2S(=O)(=O)C(C)C)n1 [NVP-TAE684] (first compound 0.015 µM, partner dose 0.08 µM)",74.6,58.1,61.8,367,99.5,65.1,78.9,178,282,
"CCN(CC)CCNC(=O)c1c(C)[nH]c(/C=C2\C(=O)Nc3ccc(F)cc32)c1C [sunitinib] + CO[C@H]1C[C@@H]2CC[C@@H](C)[C@@](O)(O2)C(=O)C(=O)N2CCCC[C@H]2C(=O)O[C@H]([C@H](C)C[C@@H]2CC[C@@H](OCCO)[C@H](OC)C2)CC(=O)[C@H](C)/C=C(\C)[C@@H](O)[C@@H](OC)C(=O)[C@H](C)C[C@H](C)/C=C/C=C/C=C/1C [everolimus] (first compound 0.4 µM, partner dose 0.02 µM)",173,105,214,371,,104,,,481,131
"C[C@@H](N)c1ccc(C(=O)Nc2ccnc3[nH]ccc23)cc1 + C[C@]1(c2nc3c(C(N)=O)cccc3[nH]2)CCCN1 [Veliparib] (first compound 0.4 µM, partner dose 1.4 µM)",164,59.3,154,63,,50.6,,,51.7,67.1
"COc1ccc(C2=N[C@@H](c3ccc(Cl)cc3)[C@@H](c3ccc(Cl)cc3)N2C(=O)N2CCNC(=O)C2)c(OC(C)C)c1 [Nutlin-3] + CO[C@H]1C[C@@H]2CC[C@@H](C)[C@@](O)(O2)C(=O)C(=O)N2CCCC[C@H]2C(=O)O[C@H]([C@H](C)C[C@@H]2CC[C@@H](OCCO)[C@H](OC)C2)CC(=O)[C@H](C)/C=C(\C)[C@@H](O)[C@@H](OC)C(=O)[C@H](C)C[C@H](C)/C=C/C=C/C=C/1C [everolimus] (first compound 0.1 µM, partner dose 0.02 µM)",82.9,87.8,108,150,,72.6,,,390,25.4
"C[C@]1(O)C[C@@H](c2nc(-c3ccc4ccc(-c5ccccc5)nc4c3)c3c(N)nccn32)C1 + COc1ccc(-c2ccc3c(N4CCOCC4)nc(N4C[C@@H](C)O[C@@H](C)C4)nc3n2)cc1CO [KU0063794] (first compound 0.4 µM, partner dose 0.02 µM)",85.1,121,125,122,213,141,207,317,117,
"CCCCCCCCc1ccc(CCC(N)(CO)CO)cc1 [fingolimod] + CC(C)(C)c1cnc(CSc2cnc(NC(=O)C3CCNCC3)s2)o1 [SNS-032] (first compound 2 µM, partner dose 0.01 µM)",102,97.7,325,201,148,66.4,77.6,49,342,
"CS(=O)(=O)c1ccc(C(=O)Nc2ccc(Cl)c(-c3ccccn3)c2)c(Cl)c1 [vismodegib] + CO[C@H]1C[C@@H]2CC[C@@H](C)[C@@](O)(O2)C(=O)C(=O)N2CCCC[C@H]2C(=O)O[C@H]([C@H](C)C[C@@H]2CC[C@@H](OCCO)[C@H](OC)C2)CC(=O)[C@H](C)/C=C(\C)[C@@H](O)[C@@H](OC)C(=O)[C@H](C)C[C@H](C)/C=C/C=C/C=C/1C [everolimus] (first compound 1 µM, partner dose 0.02 µM)",63.7,90.1,156,350,,120,,,183,91.7
"NC1(c2ccc(-c3nc4ccn5c(=O)[nH]nc5c4cc3-c3ccccc3)cc2)CCC1 + Nc1ccn([C@@H]2O[C@H](CO)[C@@H](O)C2(F)F)c(=O)n1 [gemcitabine] (first compound 0.4 µM, partner dose 0.0004 µM)",129,101,115,143,,88.9,,,112,104
"Cn1cnc2c(F)c(Nc3ccc(Br)cc3Cl)c(C(=O)NOCCO)cc21 [selumetinib] + COCC[n+]1c2c(n(Cc3cnccn3)c1C)C(=O)c1ccccc1C2=O [YM155] (first compound 0.015 µM, partner dose 0.0004 µM)",111,43.1,182,46.9,,127,,,139,219
"CC1(C)CCC(c2ccc(Cl)cc2)=C(CN2CCN(c3ccc(C(=O)NS(=O)(=O)c4ccc(N[C@H](CCN5CCOCC5)CSc5ccccc5)c(S(=O)(=O)C(F)(F)F)c4)cc3)CC2)C1 + CO[C@H]1C[C@@H]2CC[C@@H](C)[C@@](O)(O2)C(=O)C(=O)N2CCCC[C@H]2C(=O)O[C@H]([C@H](C)C[C@@H]2CC[C@@H](OCCO)[C@H](OC)C2)CC(=O)[C@H](C)/C=C(\C)[C@@H](O)[C@@H](OC)C(=O)[C@H](C)C[C@H](C)/C=C/C=C/C=C/1C [everolimus] (first compound 0.4 µM, partner dose 0.02 µM)",661,104,119,555,,875,,,163,155
"CN(c1ncccc1CNc1nc(Nc2ccc3c(c2)CC(=O)N3)ncc1C(F)(F)F)S(C)(=O)=O + Clc1ccc(Nc2nnc(Cc3ccncc3)c3ccccc23)cc1 [vatalanib] (first compound 0.08 µM, partner dose 2 µM)",161,80.4,46.4,50.4,,109,,,79.6,26.9
"CN(c1ncccc1CNc1nc(Nc2ccc3c(c2)CC(=O)N3)ncc1C(F)(F)F)S(C)(=O)=O + C#Cc1cccc(Nc2ncnc3cc(OCCOC)c(OCCOC)cc23)c1 [erlotinib] (first compound 0.08 µM, partner dose 0.8 µM)",62.9,151,96,46.9,,62.9,,,404,222
"CCCCCCCCc1ccc(CCC(N)(CO)CO)cc1 [fingolimod] + COc1ccc(COc2ccc(Cc3cnc(N)nc3N)cc2OC)cc1 [GW2580] (first compound 2 µM, partner dose 1 µM)",16.7,87.5,133,166,47.7,175,36.6,165,79.5,
"CN(c1ncccc1CNc1nc(Nc2ccc3c(c2)CC(=O)N3)ncc1C(F)(F)F)S(C)(=O)=O + CO[C@H]1C[C@@H]2CC[C@@H](C)[C@@](O)(O2)C(=O)C(=O)N2CCCC[C@H]2C(=O)O[C@H]([C@H](C)C[C@@H]2CC[C@@H](OCCO)[C@H](OC)C2)CC(=O)[C@H](C)/C=C(\C)[C@@H](O)[C@@H](OC)C(=O)[C@H](C)C[C@H](C)/C=C/C=C/C=C/1C [everolimus] (first compound 0.08 µM, partner dose 0.02 µM)",115,142,141,168,,55.5,,,343,77.2
"CN(c1ncccc1CNc1nc(Nc2ccc3c(c2)CC(=O)N3)ncc1C(F)(F)F)S(C)(=O)=O + Cc1nc(Nc2ncc(C(=O)Nc3c(C)cccc3Cl)s2)cc(N2CCN(CCO)CC2)n1 [dasatanib] (first compound 0.08 µM, partner dose 0.004 µM)",100,230,327,57.2,,82.6,,,203,231
"CCCCCCCCc1ccc(CCC(N)(CO)CO)cc1 [fingolimod] + O=C(CCCCCCC(=O)Nc1ccccc1)NO [vorinostat] (first compound 2 µM, partner dose 0.08 µM)",46.4,243,41.5,71.2,48.5,70.6,154,68.3,36.3,
"C[C@@H](N)c1ccc(C(=O)Nc2ccnc3[nH]ccc23)cc1 + CO[C@H]1C[C@@H]2CC[C@@H](C)[C@@](O)(O2)C(=O)C(=O)N2CCCC[C@H]2C(=O)O[C@H]([C@H](C)C[C@@H]2CC[C@@H](OCCO)[C@H](OC)C2)CC(=O)[C@H](C)/C=C(\C)[C@@H](O)[C@@H](OC)C(=O)[C@H](C)C[C@H](C)/C=C/C=C/C=C/1C [everolimus] (first compound 0.4 µM, partner dose 0.02 µM)",155,95.7,208,1090,,51.5,,,648,132

# Part of the list above, with bars between the fields.
Structure (SMILES) | cleaved PARP positive nuclei fraction (MeWo) [%] | cleaved PARP positive nuclei fraction (RPMI7951) [%] | cleaved PARP positive nuclei fraction (RVH-421) [%] | cleaved PARP positive nuclei fraction (SkMel28) [%] | cleaved PARP positive nuclei fraction (SkMel2) [%] | cleaved PARP positive nuclei fraction (SkMel30) [%] | cleaved PARP positive nuclei fraction (SkMel5) [%] | cleaved PARP positive nuclei fraction (UACC257) [%] | cleaved PARP positive nuclei fraction (UACC62) [%] | cleaved PARP positive nuclei fraction (MZ2-MEL) [%]
COc1ccc(C2=N[C@@H](c3ccc(Cl)cc3)[C@@H](c3ccc(Cl)cc3)N2C(=O)N2CCNC(=O)C2)c(OC(C)C)c1 [Nutlin-3] + CCCCCCCCCCCC1=C(O)C(=O)C=C(O)C1=O [Embelin] (first compound 0.1 µM, partner dose 1.2 µM) | 145 | 87.8 | 134 | 154 | 103 | 61.1 | 106 | 172 | 87.1 | 
CCCCCCCCc1ccc(CCC(N)(CO)CO)cc1 [fingolimod] + CNC(=O)c1cc(Oc2ccc(NC(=O)Nc3ccc(Cl)c(C(F)(F)F)c3)cc2)ccn1 [sorafenib] (first compound 2 µM, partner dose 0.4 µM) | 117 | 70.6 | 36.7 | 42.4 |  | 93.8 |  |  | 269 | 62.8
